In patent US12338443B2, “Photoactivatable Tet expression control system” (JAPAN SCIENCE AND TECHNOLOGY AGENCY, priority 2018, dated 2025):
Some of these results come from one statement about several compounds together.

Tested on: pTREtight-Ub-ELuc reporter in HEK293T cells
Assay: Screening of Bphp1/Q-PAS1 PA-Tet-OFF candidate constructs, luciferase assay, near-infrared light (Table 7)
Type: cell-based, human

Which Light/Dark ratio does the source give for “QT4: TetR(I194T)-SPKKK-HMEF-RpBphP1 + 2xNLS-p65AD-HMEF-Q-PAS1 (SEQ ID NO: 26, 27)” here?
The Light/Dark ratio was ≥ 10.

For “QT8: RpBphP1-TSTR-TetR(I194T) + 2xNLS-p65AD-HMEF-Q-PAS1 (SEQ ID NO: 28, 27)”, which Light/Dark ratio is on record?
Its Light/Dark ratio is ≥ 10.

Which Light/Dark ratio does the source give for “QT7: RpBphP1-TSTR-TetR(I194T) + p65AD-HMEF-Q-PAS1 (SEQ ID NO: 28, 29)” here?
Its Light/Dark ratio is ≥ 10.
